Measured values published in PMC3276558, “The B-Cell Specific Transcription Factor, Oct-2, Promotes Epstein-Barr Virus Latency by Inhibiting the Viral Immediate-Early Protein, BZLF1”.
No constants are given. Whether binding was seen depends on the method and setting. In cells and extracts the contact can be indirect. Some entries that bind do so weakly or less than the wild type.

By UniProt entry, the sequences of proteins in these tests, tags left out.
UniProt P09086: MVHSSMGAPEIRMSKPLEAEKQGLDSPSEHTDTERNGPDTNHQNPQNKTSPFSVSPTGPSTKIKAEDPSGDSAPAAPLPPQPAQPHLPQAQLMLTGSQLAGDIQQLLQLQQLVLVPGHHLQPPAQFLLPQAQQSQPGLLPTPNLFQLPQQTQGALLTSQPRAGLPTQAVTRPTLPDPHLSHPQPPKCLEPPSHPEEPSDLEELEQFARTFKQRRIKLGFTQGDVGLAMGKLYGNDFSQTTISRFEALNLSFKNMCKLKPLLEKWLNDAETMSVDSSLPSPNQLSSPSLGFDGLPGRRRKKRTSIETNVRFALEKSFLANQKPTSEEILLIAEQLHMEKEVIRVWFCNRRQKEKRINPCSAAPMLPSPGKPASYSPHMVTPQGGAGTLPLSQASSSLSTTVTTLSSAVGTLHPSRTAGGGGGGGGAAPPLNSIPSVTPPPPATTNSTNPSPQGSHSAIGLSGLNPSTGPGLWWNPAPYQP
UniProt P03206: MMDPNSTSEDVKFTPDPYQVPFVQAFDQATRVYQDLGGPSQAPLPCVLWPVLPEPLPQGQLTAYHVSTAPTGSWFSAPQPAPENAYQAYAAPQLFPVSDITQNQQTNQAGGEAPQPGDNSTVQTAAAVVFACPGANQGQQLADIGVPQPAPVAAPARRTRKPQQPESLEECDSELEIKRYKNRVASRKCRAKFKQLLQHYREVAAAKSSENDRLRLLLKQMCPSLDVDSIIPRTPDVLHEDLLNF

Biological target: endogenous Oct-2 in MutuI cells (human (endogenous in MutuI)) (UniProt P09086)
Experiment: co-IP; endogenous proteins; MutuI cells treated with 5 µg/mL TGF-β; NP-40 lysis buffer; precipitated with anti-Oct-2 rabbit antibody or control antibody, immunoblot with anti-BZLF1

Substance: endogenous BZLF1 in lytically infected MutuI cells (from UniProt P03206 1-245)
- binding: binds
